Results deposited as PubChem BioAssay AID1259308 (NCATS, 2017)

Screen: 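Genes whose loss raises luciferase production in HEK293 cells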 (primary screen)
Cell system: human HEK293 embryonic kidney cells stably expressing firefly luciferase (HEK-CMV-Luc2-Hygro)
Reagent: single siRNA against human genes, 0.8 pmol siRNA per well
Time to read-out: 72 h
Read-out: 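Luciferase light (ONE-Glo) measured on one replicate plate set and viability (CellTiter-Glo) on the other, scaled to a negative control siRNA, with robust z-scores and luciferase per cell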
Reading the numbers: total luciferase, z-score and total luciferase, % of control: higher = more reporter protein produced; luciferase per cell, z-score: higher = more reporter output per viable cell; viable cells, % of control: higher = more viable cells
Rule for the call: 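Active when the median/MAD z-score for overall luciferase is greater than 3; a gene was taken forward for validation with new siRNAs if at least two of its three siRNAs passed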
Meaning of the calls: active = raised luciferase; inactive = no rise
In all, the deposit lists about 59,000 reagents; below is a part drawn at random. Over the whole deposit, about 1,510 (2.6%) are marked active. 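Calls use total luciferase alone and ignore viability, so some active siRNAs may act by altering cell number.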 Reagents against one gene are numbered here. No sequences are given here.

gene | reagent | total luciferase, z-score | total luciferase, % of control | luciferase per cell, z-score | viable cells, % of control | call
MANEAL (mannosidase endo-alpha like) | 1 | -0.398 | 74 | -0.553 | 95.6 | inactive
MANEAL (mannosidase endo-alpha like) | 2 | 1.03 | 102 | 1.11 | 85.3 | inactive
MANEAL (mannosidase endo-alpha like) | 3 | -0.68 | 68.4 | 0.391 | 68.9 | inactive
CWF19L1 (CWF19 like cell cycle control factor 1) | 1 | -1 | 62 | 0.332 | 63.5 | inactive
CWF19L1 (CWF19 like cell cycle control factor 1) | 2 | 0.646 | 94.7 | 0.552 | 91.5 | inactive
CWF19L1 (CWF19 like cell cycle control factor 1) | 3 | -0.374 | 74.4 | 0.181 | 79.3 | inactive
WAC (WW domain containing adaptor with coiled-coil) | 1 | -2.74 | 27.4 | -4.02 | 88.2 | inactive
WAC (WW domain containing adaptor with coiled-coil) | 2 | -1.25 | 57 | -1.42 | 92.6 | inactive
WAC (WW domain containing adaptor with coiled-coil) | 3 | -0.821 | 65.6 | -1.11 | 98 | inactive
UBE4B (ubiquitination factor E4B) | 1 | 0.272 | 87.3 | 2.37 | 52.2 | inactive
UBE4B (ubiquitination factor E4B) | 2 | -0.237 | 77.2 | 0.628 | 73.1 | inactive
UBE4B (ubiquitination factor E4B) | 3 | -0.618 | 69.6 | -0.543 | 89.7 | inactive
CCDC198 (coiled-coil domain containing 198) | 1 | -1.36 | 54.9 | -1.38 | 88.1 | inactive
CCDC198 (coiled-coil domain containing 198) | 2 | 1.02 | 102 | 1.26 | 82.1 | inactive
CCDC198 (coiled-coil domain containing 198) | 3 | 0.132 | 84.5 | 0.525 | 82.2 | inactive
SELENOP (selenoprotein P) | 1 | -0.17 | 78.5 | 0.166 | 84 | inactive
SELENOP (selenoprotein P) | 2 | -0.0719 | 80.5 | -0.423 | 100 | inactive
SELENOP (selenoprotein P) | 3 | 1.47 | 111 | 0.709 | 103 | inactive
NDUFS7 (NADH:ubiquinone oxidoreductase core subunit S7) | 1 | -0.713 | 67.7 | -0.386 | 83.7 | inactive
NDUFS7 (NADH:ubiquinone oxidoreductase core subunit S7) | 2 | -0.272 | 76.5 | 0.222 | 80.6 | inactive
NDUFS7 (NADH:ubiquinone oxidoreductase core subunit S7) | 3 | 0.681 | 95.4 | 1.91 | 64.4 | inactive
MEPCE (methylphosphate capping enzyme) | 1 | 0.903 | 99.9 | 0.949 | 86.9 | inactive
MEPCE (methylphosphate capping enzyme) | 2 | 1 | 102 | 1.26 | 81.7 | inactive
MEPCE (methylphosphate capping enzyme) | 3 | 1.41 | 110 | 1.96 | 73.5 | inactive
LPA (lipoprotein(a)) | 1 | -0.578 | 70.4 | -0.704 | 94.7 | inactive
LPA (lipoprotein(a)) | 2 | -0.502 | 71.9 | -0.471 | 91 | inactive
LPA (lipoprotein(a)) | 3 | 0.705 | 95.9 | 0.349 | 97.8 | inactive
NUP153 (nucleoporin 153) | 1 | 0.571 | 93.3 | 2.4 | 55.3 | inactive
NUP153 (nucleoporin 153) | 2 | 2.95 | 140 | 2.51 | 81.1 | inactive
NUP153 (nucleoporin 153) | 3 | 2.06 | 123 | 1.97 | 81.7 | inactive
PKD1L3 | 1 | -0.249 | 76.9 | -0.172 | 89.9 | inactive
PKD1L3 | 2 | 0.378 | 89.4 | -0.144 | 104 | inactive
PKD1L3 | 3 | -0.579 | 70.4 | -0.792 | 96.9 | inactive
BCKDHB (branched chain keto acid dehydrogenase E1 subunit beta) | 1 | -1.04 | 61.1 | -1.6 | 104 | inactive
BCKDHB (branched chain keto acid dehydrogenase E1 subunit beta) | 2 | -0.0984 | 79.9 | 0.333 | 81.8 | inactive
BCKDHB (branched chain keto acid dehydrogenase E1 subunit beta) | 3 | -1 | 62 | 0.322 | 63.6 | inactive
HMGB3 (high mobility group box 3) | 1 | 2.27 | 127 | 2.63 | 71.1 | inactive
HMGB3 (high mobility group box 3) | 2 | 1.35 | 109 | 0.5 | 106 | inactive
HMGB3 (high mobility group box 3) | 3 | -0.457 | 72.8 | -0.194 | 85.6 | inactive
YIF1B | 1 | 0.0525 | 82.9 | 0.0879 | 90.6 | inactive
YIF1B | 2 | 1.88 | 119 | 1.25 | 96 | inactive
YIF1B | 3 | -0.816 | 65.7 | 0.704 | 61 | inactive
YIF1B | 4 | 0.0495 | 82.9 | 0.00565 | 92.5 | inactive
YIF1B | 5 | 3.36 | 149 | 2.12 | 95 | active
YIF1B | 6 | -0.179 | 78.3 | 0.0164 | 87.1 | inactive

Laid out differently: entries from further up
MEPCE (methylphosphate capping enzyme) #3
- total luciferase, z-score: 1.41
- total luciferase, % of control: 110
- luciferase per cell, z-score: 1.96
- viable cells, % of control: 73.5
- call: inactive

LPA (lipoprotein(a)) #1
- total luciferase, z-score: -0.578
- total luciferase, % of control: 70.4
- luciferase per cell, z-score: -0.704
- viable cells, % of control: 94.7
- call: inactive

LPA (lipoprotein(a)) #2
- total luciferase, z-score: -0.502
- total luciferase, % of control: 71.9
- luciferase per cell, z-score: -0.471
- viable cells, % of control: 91
- call: inactive

LPA (lipoprotein(a)) #3
- total luciferase, z-score: 0.705
- total luciferase, % of control: 95.9
- luciferase per cell, z-score: 0.349
- viable cells, % of control: 97.8
- call: inactive

NUP153 (nucleoporin 153) #1
- total luciferase, z-score: 0.571
- total luciferase, % of control: 93.3
- luciferase per cell, z-score: 2.4
- viable cells, % of control: 55.3
- call: inactive

NUP153 (nucleoporin 153) #2
- total luciferase, z-score: 2.95
- total luciferase, % of control: 140
- luciferase per cell, z-score: 2.51
- viable cells, % of control: 81.1
- call: inactive

NUP153 (nucleoporin 153) #3
- total luciferase, z-score: 2.06
- total luciferase, % of control: 123
- luciferase per cell, z-score: 1.97
- viable cells, % of control: 81.7
- call: inactive

PKD1L3 #1
- total luciferase, z-score: -0.249
- total luciferase, % of control: 76.9
- luciferase per cell, z-score: -0.172
- viable cells, % of control: 89.9
- call: inactive

PKD1L3 #2
- total luciferase, z-score: 0.378
- total luciferase, % of control: 89.4
- luciferase per cell, z-score: -0.144
- viable cells, % of control: 104
- call: inactive

PKD1L3 #3
- total luciferase, z-score: -0.579
- total luciferase, % of control: 70.4
- luciferase per cell, z-score: -0.792
- viable cells, % of control: 96.9
- call: inactive

BCKDHB (branched chain keto acid dehydrogenase E1 subunit beta) #1
- total luciferase, z-score: -1.04
- total luciferase, % of control: 61.1
- luciferase per cell, z-score: -1.6
- viable cells, % of control: 104
- call: inactive

BCKDHB (branched chain keto acid dehydrogenase E1 subunit beta) #2
- total luciferase, z-score: -0.0984
- total luciferase, % of control: 79.9
- luciferase per cell, z-score: 0.333
- viable cells, % of control: 81.8
- call: inactive

Additional records follow.
gene | reagent | total luciferase, z-score | total luciferase, % of control | luciferase per cell, z-score | viable cells, % of control | call
SLC7A10 | 1 | -2.06 | 40.9 | -1.12 | 61.4 | inactive
SLC7A10 | 2 | -0.373 | 74.5 | -0.208 | 87.9 | inactive
SLC7A10 | 3 | -0.494 | 72.1 | -0.99 | 104 | inactive
UGT2A3 (UDP glucuronosyltransferase family 2 member A3) | 1 | 0.519 | 92.2 | 0.141 | 99.3 | inactive
UGT2A3 (UDP glucuronosyltransferase family 2 member A3) | 2 | 0.728 | 96.4 | 0.454 | 95.5 | inactive
UGT2A3 (UDP glucuronosyltransferase family 2 member A3) | 3 | 0.658 | 95 | 0.861 | 84.6 | inactive
ARHGEF35 (Rho guanine nucleotide exchange factor 35) | 1 | -0.877 | 64.4 | -1.29 | 101 | inactive
ARHGEF35 (Rho guanine nucleotide exchange factor 35) | 2 | -0.665 | 68.7 | -0.909 | 97.5 | inactive
ARHGEF35 (Rho guanine nucleotide exchange factor 35) | 3 | 1.23 | 106 | 0.513 | 104 | inactive
PDE10A (phosphodiesterase 10A) | 1 | 1.7 | 116 | 0.817 | 104 | inactive
PDE10A (phosphodiesterase 10A) | 2 | 0.635 | 94.5 | 0.433 | 94.2 | inactive
PDE10A (phosphodiesterase 10A) | 3 | -2.41 | 33.9 | -2.86 | 80.4 | inactive
ACAD10 (acyl-CoA dehydrogenase family member 10) | 1 | 0.0726 | 83.3 | -0.151 | 96.9 | inactive
ACAD10 (acyl-CoA dehydrogenase family member 10) | 2 | -0.898 | 64 | -0.731 | 86.7 | inactive
ACAD10 (acyl-CoA dehydrogenase family member 10) | 3 | -0.284 | 76.2 | -0.594 | 99.6 | inactive
UPK3B (uroplakin 3B) | 1 | 0.863 | 99 | 0.787 | 90 | inactive
UPK3B (uroplakin 3B) | 2 | 3.02 | 142 | 2.66 | 78.6 | active
UPK3B (uroplakin 3B) | 3 | 1.99 | 121 | 2.96 | 62.3 | inactive
ADO (2-aminoethanethiol dioxygenase) | 1 | 1.12 | 104 | 0.803 | 94.2 | inactive
ADO (2-aminoethanethiol dioxygenase) | 2 | 0.303 | 87.9 | 0.551 | 85 | inactive
ADO (2-aminoethanethiol dioxygenase) | 3 | -0.375 | 74.4 | -0.251 | 88.8 | inactive
STK11 (serine/threonine kinase 11) | 1 | -0.252 | 76.9 | 0.0161 | 85.5 | inactive
STK11 (serine/threonine kinase 11) | 2 | 1.55 | 113 | 0.446 | 112 | inactive
STK11 (serine/threonine kinase 11) | 3 | 4.28 | 167 | 1.75 | 118 | active
AEN (apoptosis enhancing nuclease) | 1 | -0.0618 | 80.7 | 0.302 | 83.2 | inactive
AEN (apoptosis enhancing nuclease) | 2 | -0.333 | 75.3 | 0.0399 | 83.2 | inactive
AEN (apoptosis enhancing nuclease) | 3 | 0.438 | 90.6 | 0.161 | 97.1 | inactive
PF4 (platelet factor 4) | 1 | 0.325 | 88.3 | -0.352 | 108 | inactive
PF4 (platelet factor 4) | 2 | 1.86 | 119 | 1.23 | 96.1 | inactive
PF4 (platelet factor 4) | 3 | 0.688 | 95.6 | 0.196 | 101 | inactive
